Source: US7482367B2, “Substituted benzimidazoles and methods of their use” (Novartis Vaccines and Diagnostics, Inc., priority 2005, dated 2009)
Some results were stated once for a whole list of compounds, not compound by compound. At least one compound was matched to its structure with a doubt left.

The compounds below were run against raf kinase (assay: Raf/Mek Filtration Assay or Biotinylated Raf Screen). Settings: procedures of Examples 76 or 77; read-out: raf kinase inhibitory activity IC50.
Type: biochemical, human
In the case of `Cn1c(Nc2cc(C(F)(F)F)ccc2Cl)nc2cc(Oc3ccnc(-c4nc(-c5ccccc5)c(C(F)(F)F)[nH]4)c3)ccc21` [Example 32, (2-Chloro-5-trifluoromethyl-phenyl)-{1-methyl-5-[2-(4-phenyl-5-trifluoromethyl-1H-imidazol-2-yl)-pyridin-4-yloxy]-1H-benzo-imidazol-2-yl}-amine], the IC50 is reported as less than 5 µM.
For `Cn1c(Nc2ccc(OC(F)(F)F)cc2)nc2cc(Oc3ccnc(-c4ncc(C(F)(F)F)[nH]4)c3)ccc21` [Example 11, {1-Methyl-5-[2-(5-trifluoromethyl-1H-imidazol-2-yl)-pyridin-4-yloxy]-1H-benzoimidazol-2-yl}-(4-trifluoromethoxy-phenyl)-amine], the IC50 was less than 5 µM.
Work on `CCc1ccccc1Nc1nc2cc(Oc3ccnc(-c4ncc(C(F)(F)F)[nH]4)c3)ccc2n1C` [Example 50, (2-Ethyl-phenyl)-{1-methyl-5-[2-(5-trifluoromethyl-1H-imidazol-2-yl)-pyridin-4-yloxy]-1H-benzo-imidazol-2-yl}-amine] yielded an IC50 of less than 5 µM.
With `Cn1c(Nc2ccc(C(F)(F)F)cc2)nc2cc(Oc3ccnc(-c4ncc(C#N)[nH]4)c3)ccc21` [Example 16, 2-{4-[1-Methyl-2-(4-trifluoromethyl-phenylamino)-1H-benzoimidazol-5-yl-oxy]-pyridin-2-yl}-3H-imidazole-4-carbonitrile] the IC50 was less than 5 µM.
`Cn1c(Nc2ccc(C(C)(C)C)cc2)nc2cc(Oc3ccnc(-c4ncc(C(F)(F)F)[nH]4)c3)ccc21` [Example 4, (4-tert-Butyl-phenyl)-{1-methyl-5-[2-(5-trifluoromethyl-1H-imidazol-2-yl)-pyridin-4-yl-oxy]-1H-benzoimidazol-2-yl}-amine] was tested, and the IC50 was less than 5 µM.
`Cn1c(Nc2ccccc2Cl)nc2cc(Oc3ccnc(-c4ncc(C(F)(F)F)[nH]4)c3)ccc21` [Example 46, (2-Chloro-phenyl)-{1-methyl-5-[2-(5-trifluoromethyl-1H-imidazol-2-yl)-pyridin-4-yloxy]-1H-benzo-imidazol-2-yl}-amine] showed an IC50 of less than 5 µM.
Work on `Cn1c(Nc2cc(C(F)(F)F)ccc2F)nc2cc(Oc3ccnc(-c4nc(C(F)(F)F)n[nH]4)c3)ccc21` [Example 64, (2-Fluoro-5-trifluoromethyl-phenyl)-{1-methyl-5-[2-(5-tri-fluoromethyl-2H-[1,2,4]triazol-3-yl)-pyridin-4-yloxy]-1H-benzo-imidazol-2-yl}-amine] yielded an IC50 of less than 5 µM.
Compound `Cc1[nH]c(-c2cc(Oc3ccc4c(c3)nc(Nc3cc(C(F)(F)F)ccc3F)n4C)ccn2)nc1-c1ccc(C(F)(F)F)cc1` [Example 13, (2-Fluoro-5-trifluoromethyl-phenyl)-(1-methyl-5-{2-[5-methyl-4-(4-trifluoromethyl-phenyl)-1H-imidazol-2-yl]-pyridin-4-yloxy}-1H-benzoimidazol-2-yl)-amine] has an IC50 of less than 5 µM.
Work on `CC(C)c1cc(Nc2nc3cc(Oc4ccnc(-c5ncc(C(F)(F)F)[nH]5)c4)ccc3n2C)ccc1F` [Example 22, (4-Fluoro-3-isopropyl-phenyl)-{1-methyl-5-[2-(5-trifluoromethyl-1H-imidazol-2-yl)-pyridin-4-yloxy]-1H-benzoimidazol-2-yl}-amine] yielded an IC50 of less than 5 µM.
For `Cn1c(Nc2cc(C(F)(F)F)ccc2F)nc2cc(Oc3ccnc(-c4nc(CC#N)n[nH]4)c3)ccc21` [Example 61, (5-{4-[2-(2-Fluoro-5-trifluoro-methyl-phenylamino)-1-methyl-1H-benzoimidazol-5-yloxy]-pyridin-2-yl}-1H-[1,2,4]triazol-3-yl)-acetonitrile], the IC50 was less than 5 µM.
Compound `Cn1c(Nc2cc(C(F)(F)F)ccc2F)nc2cc(Oc3ccnc(-c4nc(-c5ccccn5)n[nH]4)c3)ccc21` [Example 60, (2-Fluoro-5-trifluoromethyl-phenyl)-{1-methyl-5-[2-(5-pyridin-2-yl-2H-[1,2,4]triazol-3-yl)-pyridin-4-yloxy]-1H-benzoimidazol-2-yl}-amine] has an IC50 of less than 5 µM.
`Cn1c(Nc2ccc(Br)cc2)nc2cc(Oc3ccnc(-c4ncc(C(F)(F)F)[nH]4)c3)ccc21` [Example 21, (4-Bromo-phenyl)-{1-methyl-5-[2-(5-trifluoromethyl-1H-imidazol-2-yl)-pyridin-4-yloxy]-1H-benzo-imidazol-2-yl}-amine] was tested, and the IC50 was less than 5 µM.
With `Cn1c(Nc2ccc(Cl)cc2)nc2cc(Oc3ccnc(-c4ncc(C(F)(F)F)[nH]4)c3)ccc21` [Example 7, (4-Chloro-phenyl)-{1-methyl-5-[2-(5-trifluoromethyl-1H-imidazol-2-yl)-pyridin-4-yl-oxy]-1H-benzoimidazol-2-yl}-amine] the IC50 was less than 5 µM.
`Cn1c(Nc2ccc(Cl)c(C(F)(F)F)c2)nc2cc(Oc3ccnc(-c4ncc(C(F)(F)F)[nH]4)c3)ccc21` [Example 9, (4-Chloro-3-trifluoromethyl-phenyl)-{1-methyl-5-[2-(5-trifluoromethyl-1H-imidazol-2-yl)-pyridin-4-yloxy]-1H-benzoimidazol-2-yl}-amine] was tested, and the IC50 was less than 5 µM.
For `Cc1[nH]c(-c2cc(Oc3ccc4c(c3)nc(Nc3cc(C(C)(C)C)ccc3F)n4C)ccn2)nc1-c1ccccc1` [Example 41, (5-tert-Butyl-2-fluoro-phenyl)-{1-methyl-5-[2-(5-methyl-4-phenyl-1H-imidazol-2-yl)-pyridin-4-yl-oxy]-1H-benzoimidazol-2-yl}-amine], the IC50 was less than 5 µM.
Compound `CCn1c(Nc2cc(C(F)(F)F)ccc2F)nc2cc(Oc3ccnc(-c4ncc(C(F)(F)F)[nH]4)c3)ccc21` [Example 53, {1-Ethyl-5-[2-(5-trifluoromethyl-1H-imidazol-2-yl)-pyridin-4-yl-oxy]-1H-benzoimidazol-2-yl}-(2-fluoro-5-trifluoromethyl-phenyl)-amine] has an IC50 of less than 5 µM.
In the case of `CCn1c(Nc2ccc(C(F)(F)F)cc2)nc2cc(Oc3ccnc(-c4ncc(C(F)(F)F)[nH]4)c3)ccc21` [Example 57, (1-Ethyl-5-[2-(5-trifluoromethyl-1H-imidazol-2-yl)-pyridin-4-yl-oxy]-1H-benzoimidazol-2-yl}-(4-trifluoromethyl-phenyl)-amine], the IC50 is reported as less than 5 µM.
Work on `Cn1c(Nc2cc(C(F)(F)F)ccc2F)nc2cc(Oc3ccnc(-c4ncc(C#N)[nH]4)c3)ccc21` [Example 29, 2-{4-[2-(2-Fluoro-5-trifluoro-methyl-phenylamino)-1-methyl-1H-benzoimidazol-5-yloxy]-pyridin-2-yl}-3H-imidazole-4-carbonitrile] yielded an IC50 of less than 5 µM.
`COc1ccc(OC)c(Nc2nc3cc(Oc4ccnc(-c5ncc(C(F)(F)F)[nH]5)c4)ccc3n2C)c1` [Example 47, (2,5-Dimethoxy-phenyl)-{1-methyl-5-[2-(5-trifluoromethyl-1H-imidazol-2-yl)-pyridin-4-yloxy]-1H-benzoimidazol-2-yl}-amine] was tested, and the IC50 was less than 5 µM.
`Cn1c(Nc2ccc(SC(F)(F)F)cc2)nc2cc(Oc3ccnc(-c4ncc(C(F)(F)F)[nH]4)c3)ccc21` [Example 23, {1-Methyl-5-[2-(5-trifluoromethyl-1H-imidazol-2-yl)-pyridin-4-yl-oxy]-1H-benzoimidazol-2-yl}-(4-trifluoromethylsulfanyl-phenyl)-amine] was tested, and the IC50 was less than 5 µM.
`Cn1c(Nc2ccc(F)c(C3CCOC3)c2)nc2cc(Oc3ccnc(-c4ncc(C(F)(F)F)[nH]4)c3)ccc21` (centres unmarked) [Example 20, [4-Fluoro-3-(tetrahydro-furan-3-yl)-phenyl]-{1-methyl-5-[2-(5-tri-fluoromethyl-1H-imidazol-2-yl)-pyridin-4-yloxy]-1H-benzo-imidazol-2-yl}-amine] was tested, and the IC50 was less than 5 µM.
`CCc1ccc(Nc2nc3cc(Oc4ccnc(-c5ncc(C(F)(F)F)[nH]5)c4)ccc3n2C)cc1` [Example 8, (4-Ethyl-phenyl)-{1-methyl-5-[2-(5-trifluoromethyl-1H-imidazol-2-yl)-pyridin-4-yl-oxy]-1H-benzoimidazol-2-yl}-amine] showed an IC50 of less than 5 µM.
`Cn1c(Nc2ccc(C(C)(C)C)cc2)nc2cc(Oc3ccnc(-c4nc(-c5ccccc5)c(C(F)(F)F)[nH]4)c3)ccc21` [Example 35, (4-tert-Butyl-phenyl)-{1-methyl-5-[2-(4-phenyl-5-trifluoromethyl-1H-imidazol-2-yl)-pyridin-4-yloxy]-1H-benzoimidazol-2-yl}-amine] gave an IC50 of less than 5 µM.
`COc1cc2c(cc1Oc1ccnc(-c3ncc(C(F)(F)F)[nH]3)c1)nc(Nc1ccc(C(F)(F)F)cc1)n2C` [Example 55, {6-Methoxy-1-methyl-5-[2-(5-tri-fluoromethyl-1H-imidazol-2-yl)-pyridin-4-yloxy]-1H-benzo-imidazol-2-yl}-(4-trifluoromethyl-phenyl)-amine] gave an IC50 of less than 5 µM.
With `Cn1c(Nc2ccccc2C(F)(F)F)nc2cc(Oc3ccnc(-c4ncc(C(F)(F)F)[nH]4)c3)ccc21` [Example 49, {1-Methyl-5-[2-(5-trifluoromethyl-1H-imidazol-2-yl)-pyridin-4-yl-oxy]-1H-benzoimidazol-2-yl}-(2-trifluoromethyl-phenyl)-amine] the IC50 was less than 5 µM.
`Cn1c(Nc2cc(C(F)(F)F)ccc2F)nc2cc(Oc3ccnc(-c4nc(CO)c(C(F)(F)F)[nH]4)c3)ccc21` [Example 15, (2-{4-[2-(2-Fluoro-5-trifluoromethyl-phenylamino)-1-methyl-1H-benzoimidazol-5-yloxy]-pyridin-2-yl}-5-trifluoromethyl-1H-imidazol-4-yl)-methanol] was tested, and the IC50 was less than 5 µM.
Work on `Cn1c(Nc2ccc(C(F)(F)F)cc2F)nc2cc(Oc3ccnc(-c4ncc(C(F)(F)F)[nH]4)c3)ccc21` [Example 45, (2-Fluoro-4-trifluoromethyl-phenyl)-{1-methyl-5-[2-(5-tri-fluoromethyl-1H-imidazol-2-yl)-pyridin-4-yloxy]-1H-benzo-imidazol-2-yl}-amine] yielded an IC50 of less than 5 µM.
Work on `Cc1[nH]c(-c2cc(Oc3ccc4c(c3)nc(Nc3cc(C(F)(F)F)ccc3Cl)n4C)ccn2)nc1-c1ccccc1` [Example 38, (2-Chloro-5-trifluoromethyl-phenyl)-{1-methyl-5-[2-(5-methyl-4-phenyl-1H-imidazol-2-yl)-pyridin-4-yloxy]-1H-benzo-imidazol-2-yl}-amine] yielded an IC50 of less than 5 µM.
With `COc1cc(Nc2nc3cc(Oc4ccnc(-c5ncc(C(F)(F)F)[nH]5)c4)ccc3n2C)cc(OC)c1` [Example 48, (3,5-Dimethoxy-phenyl)-{1-methyl-5-[2-(5-trifluoromethyl-1H-imidazol-2-yl)-pyridin-4-yloxy]-1H-benzoimidazol-2-yl}-amine] the IC50 was less than 5 µM.
